# Reference: the supplement of paper PMC10849652
# Amino acid sequences for entries named in this document (tags omitted). A change or cut given only in a name is not applied to a line headed by its entry.
# UniProt P08842: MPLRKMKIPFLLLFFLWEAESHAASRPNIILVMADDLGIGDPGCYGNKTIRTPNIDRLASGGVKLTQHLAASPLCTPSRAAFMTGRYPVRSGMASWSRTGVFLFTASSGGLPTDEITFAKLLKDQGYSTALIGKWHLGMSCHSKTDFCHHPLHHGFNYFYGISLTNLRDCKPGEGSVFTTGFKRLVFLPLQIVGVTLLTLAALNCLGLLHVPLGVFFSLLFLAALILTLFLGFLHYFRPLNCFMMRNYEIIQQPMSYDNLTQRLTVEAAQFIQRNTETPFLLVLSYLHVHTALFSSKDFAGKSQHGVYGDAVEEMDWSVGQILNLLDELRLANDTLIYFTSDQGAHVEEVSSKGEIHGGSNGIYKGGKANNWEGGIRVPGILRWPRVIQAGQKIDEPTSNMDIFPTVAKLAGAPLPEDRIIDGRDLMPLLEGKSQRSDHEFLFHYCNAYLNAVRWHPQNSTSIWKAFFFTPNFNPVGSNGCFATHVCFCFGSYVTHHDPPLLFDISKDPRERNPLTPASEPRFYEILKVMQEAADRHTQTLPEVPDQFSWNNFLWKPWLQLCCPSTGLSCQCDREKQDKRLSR
# UniProt Q15543, whole entry, looked up: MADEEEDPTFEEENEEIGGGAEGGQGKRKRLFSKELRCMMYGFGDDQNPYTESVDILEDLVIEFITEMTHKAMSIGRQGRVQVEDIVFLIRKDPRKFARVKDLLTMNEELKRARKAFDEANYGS
# UniProt O15061: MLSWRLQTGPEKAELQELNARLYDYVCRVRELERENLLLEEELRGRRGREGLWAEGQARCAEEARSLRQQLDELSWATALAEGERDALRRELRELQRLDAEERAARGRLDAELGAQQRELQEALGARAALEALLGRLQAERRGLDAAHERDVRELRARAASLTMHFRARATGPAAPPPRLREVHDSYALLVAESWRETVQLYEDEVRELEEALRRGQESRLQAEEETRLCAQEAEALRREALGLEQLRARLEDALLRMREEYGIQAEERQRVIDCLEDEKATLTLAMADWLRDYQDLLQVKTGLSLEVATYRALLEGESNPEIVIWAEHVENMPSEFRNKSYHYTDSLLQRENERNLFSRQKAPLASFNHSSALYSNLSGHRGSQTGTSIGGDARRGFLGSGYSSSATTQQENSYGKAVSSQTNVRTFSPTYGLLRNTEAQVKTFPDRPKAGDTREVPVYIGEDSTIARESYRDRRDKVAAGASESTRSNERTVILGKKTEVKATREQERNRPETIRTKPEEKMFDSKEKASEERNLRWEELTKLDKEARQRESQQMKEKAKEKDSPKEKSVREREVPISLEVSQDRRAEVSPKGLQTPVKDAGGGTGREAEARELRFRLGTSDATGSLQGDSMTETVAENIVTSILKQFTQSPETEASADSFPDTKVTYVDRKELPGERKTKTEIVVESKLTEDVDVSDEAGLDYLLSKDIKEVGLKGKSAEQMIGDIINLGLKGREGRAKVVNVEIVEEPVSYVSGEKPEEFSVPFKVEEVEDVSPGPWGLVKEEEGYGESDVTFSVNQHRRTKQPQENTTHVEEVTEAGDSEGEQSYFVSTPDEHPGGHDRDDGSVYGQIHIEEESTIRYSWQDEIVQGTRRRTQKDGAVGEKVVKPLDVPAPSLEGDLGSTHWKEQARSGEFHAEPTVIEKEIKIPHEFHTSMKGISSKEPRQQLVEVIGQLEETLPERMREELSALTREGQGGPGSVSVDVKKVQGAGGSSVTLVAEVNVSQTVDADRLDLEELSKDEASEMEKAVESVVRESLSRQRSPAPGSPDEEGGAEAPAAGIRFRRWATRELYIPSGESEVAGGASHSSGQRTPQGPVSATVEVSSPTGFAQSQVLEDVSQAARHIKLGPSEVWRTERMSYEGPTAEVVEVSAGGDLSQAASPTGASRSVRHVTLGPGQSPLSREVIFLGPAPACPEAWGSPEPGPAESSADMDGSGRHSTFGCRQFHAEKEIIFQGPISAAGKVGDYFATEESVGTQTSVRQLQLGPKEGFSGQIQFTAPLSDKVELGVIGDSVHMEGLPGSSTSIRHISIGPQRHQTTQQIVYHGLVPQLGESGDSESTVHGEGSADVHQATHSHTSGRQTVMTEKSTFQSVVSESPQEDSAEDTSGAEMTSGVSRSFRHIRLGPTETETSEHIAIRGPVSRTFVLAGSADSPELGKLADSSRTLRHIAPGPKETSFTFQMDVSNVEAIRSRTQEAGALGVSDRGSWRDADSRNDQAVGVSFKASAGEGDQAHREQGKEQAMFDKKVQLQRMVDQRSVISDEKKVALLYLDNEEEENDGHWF
# UniProt Q9UBS9: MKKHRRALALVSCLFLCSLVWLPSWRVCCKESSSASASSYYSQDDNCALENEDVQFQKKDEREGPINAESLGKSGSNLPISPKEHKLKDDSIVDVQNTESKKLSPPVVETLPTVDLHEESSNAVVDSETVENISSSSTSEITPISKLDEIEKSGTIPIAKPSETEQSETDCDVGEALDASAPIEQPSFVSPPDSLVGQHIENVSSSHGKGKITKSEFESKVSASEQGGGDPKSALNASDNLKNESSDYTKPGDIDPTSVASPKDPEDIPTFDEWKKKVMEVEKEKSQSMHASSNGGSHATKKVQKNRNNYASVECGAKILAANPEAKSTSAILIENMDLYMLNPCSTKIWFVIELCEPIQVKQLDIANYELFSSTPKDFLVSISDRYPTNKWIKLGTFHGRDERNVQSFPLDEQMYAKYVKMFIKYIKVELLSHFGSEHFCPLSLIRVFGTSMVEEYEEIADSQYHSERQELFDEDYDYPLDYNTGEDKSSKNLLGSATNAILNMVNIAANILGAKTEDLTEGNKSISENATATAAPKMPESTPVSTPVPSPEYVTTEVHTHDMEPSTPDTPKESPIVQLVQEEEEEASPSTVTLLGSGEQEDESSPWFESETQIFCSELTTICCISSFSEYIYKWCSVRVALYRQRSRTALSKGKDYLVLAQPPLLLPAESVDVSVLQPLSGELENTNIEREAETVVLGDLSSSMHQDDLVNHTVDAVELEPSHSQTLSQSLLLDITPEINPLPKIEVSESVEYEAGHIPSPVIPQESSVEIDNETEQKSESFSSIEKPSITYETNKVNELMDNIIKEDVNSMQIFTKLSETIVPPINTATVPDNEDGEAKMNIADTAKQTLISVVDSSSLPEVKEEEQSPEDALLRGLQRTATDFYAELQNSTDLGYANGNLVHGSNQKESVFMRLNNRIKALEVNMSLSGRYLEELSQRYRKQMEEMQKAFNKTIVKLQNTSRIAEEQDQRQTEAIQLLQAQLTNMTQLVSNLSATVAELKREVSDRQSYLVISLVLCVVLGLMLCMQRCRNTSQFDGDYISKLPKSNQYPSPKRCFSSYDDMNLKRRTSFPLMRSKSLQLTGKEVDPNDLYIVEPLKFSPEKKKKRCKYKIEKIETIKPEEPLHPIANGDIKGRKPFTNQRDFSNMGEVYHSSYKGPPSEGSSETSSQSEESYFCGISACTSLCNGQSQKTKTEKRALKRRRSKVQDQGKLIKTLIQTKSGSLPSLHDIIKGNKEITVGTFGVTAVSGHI
# UniProt Q9P246, whole entry, looked up: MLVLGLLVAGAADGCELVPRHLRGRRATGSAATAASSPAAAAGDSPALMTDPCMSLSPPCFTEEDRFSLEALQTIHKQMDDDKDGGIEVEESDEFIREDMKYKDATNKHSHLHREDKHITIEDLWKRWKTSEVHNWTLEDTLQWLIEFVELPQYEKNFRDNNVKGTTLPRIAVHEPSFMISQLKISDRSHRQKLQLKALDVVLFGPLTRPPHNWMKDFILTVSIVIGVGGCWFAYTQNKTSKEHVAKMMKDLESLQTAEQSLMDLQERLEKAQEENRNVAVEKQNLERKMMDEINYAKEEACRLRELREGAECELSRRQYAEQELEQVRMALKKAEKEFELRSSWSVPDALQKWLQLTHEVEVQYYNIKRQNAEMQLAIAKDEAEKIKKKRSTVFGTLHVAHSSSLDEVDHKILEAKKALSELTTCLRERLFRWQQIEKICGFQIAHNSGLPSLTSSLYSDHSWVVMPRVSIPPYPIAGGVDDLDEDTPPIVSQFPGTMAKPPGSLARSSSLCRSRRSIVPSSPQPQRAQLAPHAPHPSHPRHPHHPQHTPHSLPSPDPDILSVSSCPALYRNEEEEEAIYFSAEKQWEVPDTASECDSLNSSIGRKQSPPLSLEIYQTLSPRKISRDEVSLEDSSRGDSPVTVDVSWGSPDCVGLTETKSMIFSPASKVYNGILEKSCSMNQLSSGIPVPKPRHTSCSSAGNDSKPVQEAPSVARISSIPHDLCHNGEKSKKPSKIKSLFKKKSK
# UniProt O60506: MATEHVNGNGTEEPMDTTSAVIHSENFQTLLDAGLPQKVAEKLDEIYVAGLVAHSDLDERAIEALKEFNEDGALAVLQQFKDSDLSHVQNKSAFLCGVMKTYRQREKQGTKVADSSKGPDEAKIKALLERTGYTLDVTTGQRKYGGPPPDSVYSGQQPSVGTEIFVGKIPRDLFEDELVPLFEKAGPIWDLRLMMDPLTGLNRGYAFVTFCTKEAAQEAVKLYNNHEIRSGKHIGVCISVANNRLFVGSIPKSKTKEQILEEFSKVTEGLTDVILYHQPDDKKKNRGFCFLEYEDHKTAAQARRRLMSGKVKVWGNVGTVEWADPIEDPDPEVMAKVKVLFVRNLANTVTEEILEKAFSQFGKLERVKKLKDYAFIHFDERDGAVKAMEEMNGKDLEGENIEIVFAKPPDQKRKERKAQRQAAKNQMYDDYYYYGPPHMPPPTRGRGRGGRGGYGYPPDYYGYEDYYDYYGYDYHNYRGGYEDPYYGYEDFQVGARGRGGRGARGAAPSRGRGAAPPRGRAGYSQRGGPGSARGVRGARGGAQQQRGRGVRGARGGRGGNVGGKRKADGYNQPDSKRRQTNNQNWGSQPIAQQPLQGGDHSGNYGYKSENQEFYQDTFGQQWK
# UniProt Q15573: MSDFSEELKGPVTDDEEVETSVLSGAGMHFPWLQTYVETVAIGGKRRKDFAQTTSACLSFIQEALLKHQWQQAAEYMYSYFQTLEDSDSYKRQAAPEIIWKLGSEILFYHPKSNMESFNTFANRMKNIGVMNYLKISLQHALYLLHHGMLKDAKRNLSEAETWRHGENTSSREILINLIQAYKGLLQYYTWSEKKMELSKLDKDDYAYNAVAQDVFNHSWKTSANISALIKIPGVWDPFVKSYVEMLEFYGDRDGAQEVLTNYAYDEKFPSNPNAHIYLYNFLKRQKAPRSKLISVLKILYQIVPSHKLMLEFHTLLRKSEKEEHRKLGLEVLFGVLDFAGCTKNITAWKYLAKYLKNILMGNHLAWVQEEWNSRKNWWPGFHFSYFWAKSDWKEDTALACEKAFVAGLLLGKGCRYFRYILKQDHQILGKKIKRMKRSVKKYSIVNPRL
# UniProt Q8N300: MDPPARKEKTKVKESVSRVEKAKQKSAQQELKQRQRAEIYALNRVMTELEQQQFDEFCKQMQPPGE
# UniProt Q9UEE5: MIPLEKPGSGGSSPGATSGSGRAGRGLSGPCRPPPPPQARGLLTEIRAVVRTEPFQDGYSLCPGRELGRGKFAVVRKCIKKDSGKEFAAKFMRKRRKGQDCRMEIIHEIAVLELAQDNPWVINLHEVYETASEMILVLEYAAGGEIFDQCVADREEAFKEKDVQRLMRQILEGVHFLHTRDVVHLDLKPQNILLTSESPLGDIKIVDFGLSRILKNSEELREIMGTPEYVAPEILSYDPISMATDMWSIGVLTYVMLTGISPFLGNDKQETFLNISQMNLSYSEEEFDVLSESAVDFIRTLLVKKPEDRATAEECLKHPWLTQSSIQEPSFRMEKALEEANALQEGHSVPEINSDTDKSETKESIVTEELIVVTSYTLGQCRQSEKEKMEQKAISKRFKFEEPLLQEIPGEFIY
# UniProt Q8N5C8: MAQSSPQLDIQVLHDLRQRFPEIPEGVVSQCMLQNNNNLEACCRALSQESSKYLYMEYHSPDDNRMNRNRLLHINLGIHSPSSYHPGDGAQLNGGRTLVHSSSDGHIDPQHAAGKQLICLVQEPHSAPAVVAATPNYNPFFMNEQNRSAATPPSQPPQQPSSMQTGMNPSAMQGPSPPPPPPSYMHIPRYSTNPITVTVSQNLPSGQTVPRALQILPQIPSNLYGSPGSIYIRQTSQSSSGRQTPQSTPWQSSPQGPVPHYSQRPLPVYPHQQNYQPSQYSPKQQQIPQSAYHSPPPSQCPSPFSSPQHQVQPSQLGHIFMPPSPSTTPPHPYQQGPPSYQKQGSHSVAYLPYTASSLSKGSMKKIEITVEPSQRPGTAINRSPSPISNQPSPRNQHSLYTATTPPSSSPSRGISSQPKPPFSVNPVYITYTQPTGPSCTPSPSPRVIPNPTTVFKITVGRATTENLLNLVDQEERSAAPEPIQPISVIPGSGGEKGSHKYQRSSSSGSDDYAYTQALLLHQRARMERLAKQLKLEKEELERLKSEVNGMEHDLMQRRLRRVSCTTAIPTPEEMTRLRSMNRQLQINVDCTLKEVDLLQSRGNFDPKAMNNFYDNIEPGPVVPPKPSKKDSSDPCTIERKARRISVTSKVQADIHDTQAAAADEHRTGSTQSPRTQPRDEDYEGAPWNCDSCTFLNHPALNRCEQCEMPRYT
# This is one part of the list.
# Tests used:
# Assay in all cases: log2 fold change, soluble protein after heating vs DMSO (PISA); higher = thermal stabilisation; K562 lysate, 10 uM; active = over 0.2 and 3.5 SD of the protein, either way, in both replicates (recomputed)
# [1] = compound: Cc1sc2c(c1C)C(c1ccc(Cl)cc1)=N[C@@H](CC(=O)OC(C)(C)C)c1nnc(C)n1-2
# How it was run: (§1)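 Following dounce homogenisation of K562 pellets in PBS pH 7.4 with 1 mM MgCl2, crude extract at 1 mg/mL protein was incubated for 30 min with 10 μM compound. Aliquots were then heated for 3 min over 48°C-58°C and pooled, NP-40 was added to 0.5% at 4°C, and soluble protein was recovered as the supernatant at 21,000xg for 90 min. Channel-sum-equalised TMTpro 16plex LC-MS/MS quantified this protein. Each value, from duplicates, is a log-two fold change in thermal stability relative to solvent controls.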
# [2] = compound: c1ccc([C@@H]2C[C@H]2NC2CCNCC2)cc1
# How it was run: as §1
# [3] = compound: CC1=C2C(=CC=C1)N=C(N(C2=O)C3=CC=CC=C3C)CN4C=NC5=C(N=CN=C54)N
# How it was run: as §1
# [4] = compound: C1=CC=C(C=C1)[C@H](COC2=CC3=C(C=C2)NC(=O)N3)NC(=O)C4=CC=CN(C4=O)CC5=CC(=C(C=C5)F)F
# How it was run: as §1
# [5] = compound: CC1=C(SC2=C1C(=N[C@H](C3=NN=C(N32)C)CC(=O)N)C4=CC=C(C=C4)Cl)C
# How it was run: as §1
target,measurement,setting,value
SUSD1 isoform 2 (UniProt Q6UWL2),log2 fold change,[1],inactive: -0.083
same,log2 fold change,[2],inactive: -0.002
SUFU (UniProt Q9UMX1),log2 fold change,[3],inactive: 0.049
same,log2 fold change,[2],inactive: 0.047
TAF3 (UniProt Q5VWG9),log2 fold change,[2],inactive: 0.595
STN1 (UniProt Q9H668),log2 fold change,[4],inactive: -0.125
same,log2 fold change,[5],inactive: 0.073
same,log2 fold change,[3],inactive: -0.115
same,log2 fold change,[2],inactive: -0.049
STRN3 isoform 2 (UniProt Q13033),log2 fold change,[4],inactive: 0.124
same,log2 fold change,[5],inactive: -0.106
same,log2 fold change,[1],inactive: -0.142
same,log2 fold change,[2],inactive: 0.112
SUGCT isoform 3 (UniProt Q9HAC7),log2 fold change,[1],inactive: -0.338
STS (UniProt P08842),log2 fold change,[4],inactive: 0.353
same,log2 fold change,[5],inactive: -0.324
same,log2 fold change,[3],inactive: 0.078
same,log2 fold change,[2],inactive: 0.016
TAF13 (UniProt Q15543),log2 fold change,[3],inactive: 0.177
same,log2 fold change,[2],inactive: 0.122
SUSD6 (UniProt Q92537),log2 fold change,[2],inactive: 0.084
SYNGR1 isoform 2 (UniProt O43759),log2 fold change,[4],inactive: 0.083
same,log2 fold change,[5],inactive: 0.034
same,log2 fold change,[2],inactive: -0.042
SZT2 (UniProt Q5T011),log2 fold change,[4],inactive: -0.285
same,log2 fold change,[5],inactive: -0.066
same,log2 fold change,[1],inactive: -0.148
same,log2 fold change,[2],inactive: 0.105
TACC3 (UniProt C9JWI7),log2 fold change,[3],inactive: 0.048
SUSD3 (UniProt Q96L08),log2 fold change,[2],inactive: -0.11
STRN3 (UniProt H0YJT2),log2 fold change,[1],inactive: -0.018
same,log2 fold change,[2],inactive: -0.069
SYNM (UniProt O15061),log2 fold change,[4],inactive: 0.078
same,log2 fold change,[5],inactive: -0.019
same,log2 fold change,[2],inactive: -0.084
STK19 (UniProt P49842),log2 fold change,[1],inactive: -0.338
SYTL2 isoform 8 (UniProt Q9HCH5),log2 fold change,[4],inactive: 0.112
same,log2 fold change,[5],inactive: 0.019
same,log2 fold change,[1],inactive: -0.13
STK26 isoform 3 (UniProt Q9P289),log2 fold change,[1],inactive: 0.166
STK38L (UniProt Q9Y2H1),log2 fold change,[1],inactive: -0.031
STK16 (UniProt O75716),log2 fold change,[3],inactive: -0.491
same,log2 fold change,[1],inactive: -0.12
SUCO isoform 2 (UniProt Q9UBS9),log2 fold change,[3],inactive: 0.015
STIM2 isoform 2 (UniProt Q9P246),log2 fold change,[1],inactive: -0.039
same,log2 fold change,[2],inactive: 0.014
TAF11 (UniProt Q15544),log2 fold change,[3],inactive: 0
same,log2 fold change,[1],inactive: -0.16
same,log2 fold change,[2],inactive: -0.073
SULT1A3 isoform 3 (UniProt P0DMM9),log2 fold change,[4],inactive: -0.08
same,log2 fold change,[5],inactive: -0.083
same,log2 fold change,[1],inactive: 0.045
same,log2 fold change,[2],inactive: 0.05
SWSAP1 (UniProt Q6NVH7),log2 fold change,[1],inactive: -0.12
STK10 (UniProt O94804),log2 fold change,[4],inactive: 0.022
same,log2 fold change,[5],inactive: 0
same,log2 fold change,[1],inactive: -0.126
SYNCRIP isoform 3 (UniProt O60506),log2 fold change,[4],inactive: 0.024
same,log2 fold change,[5],inactive: 0.011
same,log2 fold change,[3],inactive: 0.048
same,log2 fold change,[2],inactive: -0.013
TAF1A (UniProt Q15573),log2 fold change,[3],inactive: -0.015
SVBP (UniProt Q8N300),log2 fold change,[2],inactive: -0.001
STK17A (UniProt Q9UEE5),log2 fold change,[2],inactive: 0.148
STK17B (UniProt O94768),log2 fold change,[1],inactive: -0.029
TAF1 isoform 4 (UniProt P21675),log2 fold change,[3],inactive: 0.113
same,log2 fold change,[1],inactive: 0.057
same,log2 fold change,[2],inactive: -0.011
SUPT3H (UniProt O75486),log2 fold change,[2],inactive: 0.054
STYX (UniProt Q8WUJ0),log2 fold change,[4],inactive: -0.03
same,log2 fold change,[5],inactive: 0.06
same,log2 fold change,[1],inactive: -0.011
same,log2 fold change,[2],inactive: -0.01
TAB3 (UniProt Q8N5C8),log2 fold change,[4],inactive: 0.247
same,log2 fold change,[5],inactive: -0.194
same,log2 fold change,[1],inactive: 0.049
same,log2 fold change,[2],inactive: 0.064

# 5 entries from above, bar-delimited:
target | measurement | setting | value
STN1 (UniProt Q9H668) | log2 fold change | [2] | inactive: -0.049
STRN3 isoform 2 (UniProt Q13033) | log2 fold change | [5] | inactive: -0.106
SUSD6 (UniProt Q92537) | log2 fold change | [2] | inactive: 0.084
SZT2 (UniProt Q5T011) | log2 fold change | [4] | inactive: -0.285
STYX (UniProt Q8WUJ0) | log2 fold change | [5] | inactive: 0.06
